Assay results reported in patent US20190374627A1, “TARGET PEPTIDES FOR CANCER THERAPY AND DIAGNOSTICS” (priority 2016, published 2019).

test system: melanoma; test: Presence of the phosphopeptide in previously analyzed melanoma samples; design: key: The presence of phosphopeptides in previously analyzed samples including leukemia, colorectal cancer, melanoma, ovarian cancer, breast cancer, and esophageal cancer is indicated by ✓

Melanoma, ✓:
82 (APRSPPPSRP; (4)...(4) The amino acid at this position is optionally phosphorylated; listed as Homo sapiens) [compound 82]
88 (FRKSMVEHY; (4)...(4) The amino acid at this position is optionally phosphorylated; listed as Homo sapiens) [compound 88]
95 (HPKRSVSL; (7)...(7) The amino acid at this position is optionally phosphorylated; listed as Homo sapiens) [compound 95]
110 (KRASGQAFEL; (4)...(4) The amino acid at this position is optionally phosphorylated; listed as Homo sapiens) [compound 110]
167 (RPRPVSPSSLL; (6)...(6) The amino acid at this position is optionally phosphorylated; listed as Homo sapiens) [compound 167]
181 (RPRSPRPPP; (4)...(4) The amino acid at this position is optionally phosphorylated; listed as Homo sapiens) [compound 181]
185 (RPRSPTGPSNSFL; (4)...(4) The amino acid at this position is optionally phosphorylated; listed as Homo sapiens) [compound 185]
188 (RPRTPLRSL; (4)...(4) The amino acid at this position is optionally phosphorylated; listed as Homo sapiens) [compound 188]
195 (RPVSPSSLL; (6)...(6) The amino acid at this position is optionally phosphorylated; listed as Homo sapiens) [compound 195]
203 (RVRKLPSTTL; (7)...(7) The amino acid at this position is optionally phosphorylated; listed as Homo sapiens) [compound 203]
255 (RRFSRSPIR; (6)...(6) The amino acid at this position is optionally phosphorylated; listed as Homo sapiens) [compound 255]
256 (RRFSRSPIRR; (4)...(4) The amino acid at this position is optionally phosphorylated; listed as Homo sapiens) [compound 256]
265 (RRLSGGSHSY; (4)...(4) The amino acid at this position is optionally phosphorylated; listed as Homo sapiens) [compound 265]
272 (RRPSLVHGY; (4)...(4) The amino acid at this position is optionally phosphorylated; listed as Homo sapiens) [compound 272]
273 (RRPSYTLGM; (4)...(4) The amino acid at this position is optionally phosphorylated; listed as Homo sapiens) [compound 273]
280 (RRVVQRSSL; (8)...(8) The amino acid at this position is optionally phosphorylated; listed as Homo sapiens) [compound 280]
283 (RSRSPLEL; (4)...(4) The amino acid at this position is optionally phosphorylated; listed as Homo sapiens) [compound 283]
290 (LLDPSRSYSY; (9)...(9) The amino acid at this position is optionally phosphorylated; listed as Homo sapiens) [compound 290]
291 (SLDSPSYVLY; (4)...(4) The amino acid at this position is optionally phosphorylated; listed as Homo sapiens) [compound 291]
298 (ATYTPQAPK; (4)...(4) The amino acid at this position is optionally phosphorylated; listed as Homo sapiens) [compound 298]
300 (FRYSGKTEY; (4)...(4) The amino acid at this position is optionally phosphorylated; listed as Homo sapiens) [compound 300]
302 (IISSPLTGK; (4)...(4) The amino acid at this position is optionally phosphorylated; listed as Homo sapiens) [compound 302]
306 (KLPDSPALAK; (5)...(5) The amino acid at this position is optionally phosphorylated; listed as Homo sapiens) [compound 306]
307 (KLPDSPALAKK; (5)...(5) The amino acid at this position is optionally phosphorylated; listed as Homo sapiens) [compound 307]
311 (KRASVFVKL; (4)...(4) The amino acid at this position is optionally phosphorylated; listed as Homo sapiens) [compound 311]
314 (MTRSPPRVSK; (4)...(4) The amino acid at this position is optionally phosphorylated; listed as Homo sapiens) [compound 314]
321 (RLLDRSPSRSAK; (8)...(8) The amino acid at this position is optionally phosphorylated; listed as Homo sapiens) [compound 321]
323 (RLSSPVLHR; (4)...(4) The amino acid at this position is optionally phosphorylated; listed as Homo sapiens) [compound 323]
324 (RSLSVEIVY; (4)...(4) The amino acid at this position is optionally phosphorylated; listed as Homo sapiens) [compound 324]

test system: colorectal cancer; test: Presence of the phosphopeptide in previously analyzed colorectal cancer samples; design: key: The presence of phosphopeptides in previously analyzed samples including leukemia, colorectal cancer, melanoma, ovarian cancer, breast cancer, and esophageal cancer is indicated by ✓

Colorectal, ✓:
365 (RFKTQPVTF; (4)...(4) The amino acid at this position is optionally phosphorylated; listed as Homo sapiens) [compound 365]
389 (RYQTQPVTL; (4)...(4) The amino acid at this position is optionally phosphorylated; listed as Homo sapiens) [compound 389]
391 (RTSSFTFQN; (4)...(4) The amino acid at this position is optionally phosphorylated; listed as Homo sapiens) [compound 391]
